# Reference: the supplement of paper PMC12819154, “High-throughput peptide-centric local stability assay extends protein–ligand identification to membrane proteins, tissues and bacteria” (Nature Structural & Molecular Biology, 2025)
# The chains behind the UniProt entries cited, without tags or fusion partners. Where a name states a change or a piece, a line headed by the entry shows the natural chain unless it says otherwise.
# UniProt P78537: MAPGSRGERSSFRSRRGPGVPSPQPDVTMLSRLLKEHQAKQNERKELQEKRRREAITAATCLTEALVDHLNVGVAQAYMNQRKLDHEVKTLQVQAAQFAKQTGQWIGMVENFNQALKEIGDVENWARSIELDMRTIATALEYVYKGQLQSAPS
# UniProt P78410: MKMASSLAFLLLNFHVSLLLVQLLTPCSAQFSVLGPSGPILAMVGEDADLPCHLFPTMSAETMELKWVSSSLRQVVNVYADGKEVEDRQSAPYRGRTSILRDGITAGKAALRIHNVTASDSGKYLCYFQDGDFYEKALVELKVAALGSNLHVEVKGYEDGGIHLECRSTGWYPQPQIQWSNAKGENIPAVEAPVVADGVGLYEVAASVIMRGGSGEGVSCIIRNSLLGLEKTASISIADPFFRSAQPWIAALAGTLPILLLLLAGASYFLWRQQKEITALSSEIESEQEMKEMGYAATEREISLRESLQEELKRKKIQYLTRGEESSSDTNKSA
# UniProt P69892: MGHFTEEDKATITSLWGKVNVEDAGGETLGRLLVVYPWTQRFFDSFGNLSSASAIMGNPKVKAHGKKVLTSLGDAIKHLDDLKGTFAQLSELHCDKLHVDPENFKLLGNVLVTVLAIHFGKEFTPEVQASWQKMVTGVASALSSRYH
# UniProt P60484: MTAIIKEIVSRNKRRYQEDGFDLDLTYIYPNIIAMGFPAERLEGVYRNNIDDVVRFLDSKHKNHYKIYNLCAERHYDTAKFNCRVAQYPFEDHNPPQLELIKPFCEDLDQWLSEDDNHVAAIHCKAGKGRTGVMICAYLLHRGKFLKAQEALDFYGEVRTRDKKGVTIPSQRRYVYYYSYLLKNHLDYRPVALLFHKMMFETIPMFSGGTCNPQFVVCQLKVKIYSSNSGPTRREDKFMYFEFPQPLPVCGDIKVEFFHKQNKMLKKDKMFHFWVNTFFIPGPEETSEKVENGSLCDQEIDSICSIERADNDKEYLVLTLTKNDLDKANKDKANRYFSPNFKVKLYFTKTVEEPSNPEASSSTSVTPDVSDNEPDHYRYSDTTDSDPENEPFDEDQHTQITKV
# UniProt P58012: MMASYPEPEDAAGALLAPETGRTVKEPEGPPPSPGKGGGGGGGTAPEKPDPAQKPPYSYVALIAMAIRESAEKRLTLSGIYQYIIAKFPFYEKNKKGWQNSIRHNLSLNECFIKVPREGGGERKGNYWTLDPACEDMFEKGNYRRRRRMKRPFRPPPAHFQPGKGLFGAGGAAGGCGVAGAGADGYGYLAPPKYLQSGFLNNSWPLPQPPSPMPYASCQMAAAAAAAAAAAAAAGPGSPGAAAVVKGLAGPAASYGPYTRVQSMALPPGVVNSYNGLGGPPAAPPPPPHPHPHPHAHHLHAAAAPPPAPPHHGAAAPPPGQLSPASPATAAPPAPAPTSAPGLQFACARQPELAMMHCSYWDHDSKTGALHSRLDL
# UniProt P55055, whole entry: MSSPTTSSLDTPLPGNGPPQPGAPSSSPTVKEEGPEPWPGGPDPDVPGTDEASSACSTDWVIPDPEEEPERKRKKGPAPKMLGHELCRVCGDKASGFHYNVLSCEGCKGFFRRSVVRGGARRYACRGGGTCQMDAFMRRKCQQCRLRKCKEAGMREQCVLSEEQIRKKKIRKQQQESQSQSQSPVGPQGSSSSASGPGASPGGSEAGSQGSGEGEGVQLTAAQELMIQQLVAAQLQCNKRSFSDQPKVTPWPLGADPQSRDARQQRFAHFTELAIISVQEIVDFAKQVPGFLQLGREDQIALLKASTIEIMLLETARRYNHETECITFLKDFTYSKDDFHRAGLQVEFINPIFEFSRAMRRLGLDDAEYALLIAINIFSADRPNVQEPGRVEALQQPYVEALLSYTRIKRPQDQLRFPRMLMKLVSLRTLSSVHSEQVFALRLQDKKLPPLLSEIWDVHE
# UniProt P59190: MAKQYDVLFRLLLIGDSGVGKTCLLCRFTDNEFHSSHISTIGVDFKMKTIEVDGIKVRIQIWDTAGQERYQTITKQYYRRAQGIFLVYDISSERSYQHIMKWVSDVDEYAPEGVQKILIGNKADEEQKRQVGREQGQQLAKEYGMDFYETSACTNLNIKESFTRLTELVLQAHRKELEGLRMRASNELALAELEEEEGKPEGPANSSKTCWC
# UniProt P55212: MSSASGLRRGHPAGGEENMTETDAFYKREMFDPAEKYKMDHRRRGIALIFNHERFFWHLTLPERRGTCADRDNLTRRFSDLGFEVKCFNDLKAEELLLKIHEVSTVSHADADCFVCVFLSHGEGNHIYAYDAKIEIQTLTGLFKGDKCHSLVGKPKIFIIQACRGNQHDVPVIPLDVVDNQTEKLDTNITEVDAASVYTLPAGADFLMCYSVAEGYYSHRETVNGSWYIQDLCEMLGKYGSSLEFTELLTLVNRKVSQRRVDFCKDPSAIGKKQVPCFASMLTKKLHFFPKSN
# UniProt P61956, whole entry: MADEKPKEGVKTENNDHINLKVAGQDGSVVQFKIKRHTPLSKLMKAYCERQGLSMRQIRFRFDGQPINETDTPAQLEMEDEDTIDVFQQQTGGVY
# UniProt P60174, whole entry: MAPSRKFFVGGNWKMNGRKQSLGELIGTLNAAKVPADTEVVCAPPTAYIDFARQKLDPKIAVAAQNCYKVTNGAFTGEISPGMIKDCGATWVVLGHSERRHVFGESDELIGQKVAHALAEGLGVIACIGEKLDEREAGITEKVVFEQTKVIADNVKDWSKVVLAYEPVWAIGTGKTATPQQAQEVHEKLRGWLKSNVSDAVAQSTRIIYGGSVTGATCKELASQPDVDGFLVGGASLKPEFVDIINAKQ
# UniProt P62318, whole entry: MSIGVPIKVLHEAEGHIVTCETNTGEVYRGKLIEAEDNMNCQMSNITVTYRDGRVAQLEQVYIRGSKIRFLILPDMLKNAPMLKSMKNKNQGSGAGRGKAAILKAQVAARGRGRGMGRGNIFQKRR
# UniProt P55209: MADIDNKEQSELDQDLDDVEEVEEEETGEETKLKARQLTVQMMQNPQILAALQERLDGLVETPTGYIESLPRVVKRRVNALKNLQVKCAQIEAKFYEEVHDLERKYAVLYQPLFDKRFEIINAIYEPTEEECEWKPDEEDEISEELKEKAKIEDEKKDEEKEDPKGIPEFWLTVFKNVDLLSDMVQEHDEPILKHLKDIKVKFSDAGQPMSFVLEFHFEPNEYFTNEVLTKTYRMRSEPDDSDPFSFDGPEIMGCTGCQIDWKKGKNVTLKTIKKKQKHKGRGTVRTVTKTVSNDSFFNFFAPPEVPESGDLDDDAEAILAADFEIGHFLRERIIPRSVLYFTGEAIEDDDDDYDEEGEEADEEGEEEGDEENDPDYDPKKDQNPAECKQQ
# UniProt P62136, whole entry: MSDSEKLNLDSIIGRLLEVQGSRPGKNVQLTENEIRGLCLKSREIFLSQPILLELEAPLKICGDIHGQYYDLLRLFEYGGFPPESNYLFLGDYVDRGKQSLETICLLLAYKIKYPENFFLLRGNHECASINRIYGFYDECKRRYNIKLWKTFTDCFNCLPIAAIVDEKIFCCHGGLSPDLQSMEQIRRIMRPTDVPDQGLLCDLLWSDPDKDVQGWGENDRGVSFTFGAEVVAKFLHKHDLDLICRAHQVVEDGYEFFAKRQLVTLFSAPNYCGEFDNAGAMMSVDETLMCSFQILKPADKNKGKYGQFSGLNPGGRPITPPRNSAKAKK
# UniProt P55196: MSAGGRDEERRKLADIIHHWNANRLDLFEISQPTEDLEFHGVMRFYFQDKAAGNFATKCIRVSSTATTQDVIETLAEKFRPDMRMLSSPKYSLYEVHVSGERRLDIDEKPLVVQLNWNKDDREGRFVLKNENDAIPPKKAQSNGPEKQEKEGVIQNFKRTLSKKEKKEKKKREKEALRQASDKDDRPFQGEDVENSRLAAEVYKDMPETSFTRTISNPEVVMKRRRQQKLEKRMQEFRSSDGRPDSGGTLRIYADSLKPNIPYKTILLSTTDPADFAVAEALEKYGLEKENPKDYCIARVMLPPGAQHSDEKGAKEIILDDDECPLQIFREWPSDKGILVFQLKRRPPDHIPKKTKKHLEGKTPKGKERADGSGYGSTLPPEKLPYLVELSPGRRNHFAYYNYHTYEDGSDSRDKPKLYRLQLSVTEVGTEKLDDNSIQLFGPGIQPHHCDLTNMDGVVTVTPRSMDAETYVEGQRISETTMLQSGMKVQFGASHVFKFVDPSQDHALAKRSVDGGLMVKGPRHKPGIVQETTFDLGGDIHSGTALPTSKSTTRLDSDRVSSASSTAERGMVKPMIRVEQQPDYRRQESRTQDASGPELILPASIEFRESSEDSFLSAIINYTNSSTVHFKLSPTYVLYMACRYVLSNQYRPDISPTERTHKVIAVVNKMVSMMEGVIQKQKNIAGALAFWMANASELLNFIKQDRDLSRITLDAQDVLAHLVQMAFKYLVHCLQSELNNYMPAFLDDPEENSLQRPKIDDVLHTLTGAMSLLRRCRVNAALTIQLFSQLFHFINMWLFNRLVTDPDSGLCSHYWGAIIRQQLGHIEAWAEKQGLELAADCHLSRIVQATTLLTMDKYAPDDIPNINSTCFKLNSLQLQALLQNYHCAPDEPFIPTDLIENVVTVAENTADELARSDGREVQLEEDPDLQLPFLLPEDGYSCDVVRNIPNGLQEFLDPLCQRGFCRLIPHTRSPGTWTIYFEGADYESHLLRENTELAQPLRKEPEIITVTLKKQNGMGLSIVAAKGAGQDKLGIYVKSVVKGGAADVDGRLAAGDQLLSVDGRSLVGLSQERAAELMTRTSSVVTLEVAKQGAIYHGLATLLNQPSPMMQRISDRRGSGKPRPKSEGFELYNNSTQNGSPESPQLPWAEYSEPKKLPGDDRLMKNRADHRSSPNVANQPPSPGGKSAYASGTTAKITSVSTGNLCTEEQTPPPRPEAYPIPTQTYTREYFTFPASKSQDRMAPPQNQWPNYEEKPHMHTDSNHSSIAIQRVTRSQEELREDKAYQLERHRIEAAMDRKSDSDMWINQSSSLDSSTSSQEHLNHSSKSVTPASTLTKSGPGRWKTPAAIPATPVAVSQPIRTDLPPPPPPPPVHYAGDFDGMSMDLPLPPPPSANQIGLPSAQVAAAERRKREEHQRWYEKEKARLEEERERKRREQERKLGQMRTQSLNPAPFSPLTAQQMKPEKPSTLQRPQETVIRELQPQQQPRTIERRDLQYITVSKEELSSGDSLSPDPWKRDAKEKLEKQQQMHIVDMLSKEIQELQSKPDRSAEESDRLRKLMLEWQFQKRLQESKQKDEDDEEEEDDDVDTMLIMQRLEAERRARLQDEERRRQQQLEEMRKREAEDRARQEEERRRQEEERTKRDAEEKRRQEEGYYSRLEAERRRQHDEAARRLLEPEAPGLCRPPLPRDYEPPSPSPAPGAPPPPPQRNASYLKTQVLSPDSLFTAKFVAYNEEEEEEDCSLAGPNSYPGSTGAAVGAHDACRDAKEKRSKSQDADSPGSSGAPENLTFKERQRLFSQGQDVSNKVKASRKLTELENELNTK
# UniProt P62312: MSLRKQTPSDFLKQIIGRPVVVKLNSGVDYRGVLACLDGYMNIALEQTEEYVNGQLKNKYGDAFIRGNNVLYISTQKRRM
# UniProt P56181: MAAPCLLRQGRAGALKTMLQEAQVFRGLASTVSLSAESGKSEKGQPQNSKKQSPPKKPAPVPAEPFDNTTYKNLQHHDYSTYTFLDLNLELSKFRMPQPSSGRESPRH
# UniProt P58340: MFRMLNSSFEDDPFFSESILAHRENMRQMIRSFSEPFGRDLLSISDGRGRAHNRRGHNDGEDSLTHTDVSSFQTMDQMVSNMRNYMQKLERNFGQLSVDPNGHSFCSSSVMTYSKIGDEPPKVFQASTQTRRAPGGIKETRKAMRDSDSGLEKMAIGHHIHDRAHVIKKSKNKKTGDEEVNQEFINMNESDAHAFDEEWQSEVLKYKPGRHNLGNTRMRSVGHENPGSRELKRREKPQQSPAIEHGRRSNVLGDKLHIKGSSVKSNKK
# UniProt P59780: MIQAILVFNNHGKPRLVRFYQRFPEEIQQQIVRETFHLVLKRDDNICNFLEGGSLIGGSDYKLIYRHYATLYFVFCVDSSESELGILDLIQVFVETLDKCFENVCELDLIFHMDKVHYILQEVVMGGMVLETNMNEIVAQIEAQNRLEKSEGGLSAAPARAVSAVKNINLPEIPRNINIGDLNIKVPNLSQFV
# Some of the results follow. Small differences around the control level are noise.
# Compound: Cc1nc(Nc2ncc(C(=O)Nc3c(C)cccc3Cl)s2)cc(N2CCN(CCO)CC2)n1 [dasatinib]
# Assay: log2 fold change of tryptic peptide abundance, ligand vs vehicle (limited proteolysis) (log2 ratio); higher = more trypsin-susceptible (destabilized)
# Conditions: ligand concentration: 5 uM; sample: K562 cleared lysate
row,Target,log2 fold change
1,"BLOC1S1 (peptide sequence: RGPGVPSPQPDVTMLSR, peptide start residue: 16) (UniProt P78537)",0.316
2,"BTN3A2 (peptide sequence: DGITAGK, peptide start residue: 102) (UniProt P78410)",-0.0907
3,"UniProt P62888 (peptide sequence: SGKYVLGYKQTLK, peptide start residue: 24)",-0.59
4,"HBG2 (peptide sequence: MVTGVASALSSR, peptide start residue: 134) (UniProt P69892)",0.0677
5,"UniProt P61964 (peptide sequence: KPETEAAR, peptide start residue: 7)",-0.109
6,"PTEN (peptide sequence: NNIDDVVR, peptide start residue: 48) (UniProt P60484)",0.104
7,"UniProt P62917 (peptide sequence: ASGNYATVISHNPETKKTR, peptide start residue: 129)",0.183
8,"UniProt P60709 (peptide sequence: YPIEHGIVTNWDDMEK, peptide start residue: 69)",0.0967
9,"FOXL2 (peptide sequence: QPELAMMHCSYWDHDSK, peptide start residue: 350) (UniProt P58012)",-0.242
10,"UniProt P62913 (peptide sequence: KLCLNICVGESGDR, peptide start residue: 19)",0.114
11,"EIF6 (peptide sequence: NSLPDTVQIR, peptide start residue: 86) (UniProt P56537)",-0.0255
12,"NR1H2 (peptide sequence: TLSSVHSEQVFALR, peptide start residue: 429) (UniProt P55055)",-0.13
13,"UniProt P59190 (peptide sequence: LLLIGDSGVGK, peptide start residue: 11)",0.0361
14,"CASP6 (peptide sequence: RGHPAGGEENMTETDAFYK, peptide start residue: 9) (UniProt P55212)",0.327
15,"UniProt P61956 (peptide sequence: AYCERQGLSMR, peptide start residue: 46)",0.163
16,"TPI1 (peptide sequence: TATPQQAQEVHEK, peptide start residue: 176) (UniProt P60174)",-0.18
17,"UniProt P62318 (peptide sequence: VAQLEQVYIR, peptide start residue: 55)",-0.0684
18,"NAP1L1 (peptide sequence: DQNPAECK, peptide start residue: 382) (UniProt P55209)",-0.675
19,"MRPS34 (peptide sequence: EIEHVMYHDWR, peptide start residue: 130) (UniProt P82930)",0.656
20,"UniProt P62847 (peptide sequence: MNDTVTIR, peptide start residue: 1)",0.125
21,"PPP1CA (peptide sequence: GKYGQFSGLNPGGRPITPPR, peptide start residue: 304) (UniProt P62136)",-0.15
22,"UniProt P55196 (peptide sequence: YVLSNQYRPDISPTER, peptide start residue: 644)",-0.193
23,"UniProt P62312 (peptide sequence: LNSGVDYR, peptide start residue: 24)",-0.172
24,"NDUFV3 (peptide sequence: GLASTVSLSAESGK, peptide start residue: 27) (UniProt P56181)",0.133
25,"MLF1 (peptide sequence: DLLSISDGR, peptide start residue: 40) (UniProt P58340)",0.258
26,"UniProt P59780 (peptide sequence: SEGGLSAAPAR, peptide start residue: 150)",-0.155

# Part of the list above, with tabs.
row	Target	log2 fold change
6	PTEN (peptide sequence: NNIDDVVR, peptide start residue: 48) (UniProt P60484)	0.104
7	UniProt P62917 (peptide sequence: ASGNYATVISHNPETKKTR, peptide start residue: 129)	0.183
8	UniProt P60709 (peptide sequence: YPIEHGIVTNWDDMEK, peptide start residue: 69)	0.0967
9	FOXL2 (peptide sequence: QPELAMMHCSYWDHDSK, peptide start residue: 350) (UniProt P58012)	-0.242
10	UniProt P62913 (peptide sequence: KLCLNICVGESGDR, peptide start residue: 19)	0.114
